Assay results taken from PMC6367351 (Nature Communications, 2019).
No constants are given. Whether binding was seen depends on the method and setting. For some of these results: Where a sequence is shown, tags or fusion partners need not be part of it. One block for each binder: values may come before it.

Experiments:
[1] = biological target: T1, Cy5-labeled histone H3 peptide; assay: condition: MinElp3 15 g/l in twofold serial dilutions, peptide 10 nM; MST; MinElp3 (15 g/l) in twofold serial dilutions, Cy-labeled H3 peptide 10 nM; 25 °C; both purified
T1 sequence (peptide, Cyanine5 on the N-terminal amino group; C-terminal amide): YSTGGKAPRK

[2] = biological target: T2, Methanocaldococcus infernus Elp3, full length (Methanocaldococcus infernus) (UniProt D5VRB9); assay: SEC; S200 gel filtration, 20 mM HEPES pH 7.5, 150 mM NaCl, 5 mM DTT; aerobic purification; masses of the monomeric forms confirmed by SDS-PAGE and light scattering (RALS and LALS); both purified
T2 sequence: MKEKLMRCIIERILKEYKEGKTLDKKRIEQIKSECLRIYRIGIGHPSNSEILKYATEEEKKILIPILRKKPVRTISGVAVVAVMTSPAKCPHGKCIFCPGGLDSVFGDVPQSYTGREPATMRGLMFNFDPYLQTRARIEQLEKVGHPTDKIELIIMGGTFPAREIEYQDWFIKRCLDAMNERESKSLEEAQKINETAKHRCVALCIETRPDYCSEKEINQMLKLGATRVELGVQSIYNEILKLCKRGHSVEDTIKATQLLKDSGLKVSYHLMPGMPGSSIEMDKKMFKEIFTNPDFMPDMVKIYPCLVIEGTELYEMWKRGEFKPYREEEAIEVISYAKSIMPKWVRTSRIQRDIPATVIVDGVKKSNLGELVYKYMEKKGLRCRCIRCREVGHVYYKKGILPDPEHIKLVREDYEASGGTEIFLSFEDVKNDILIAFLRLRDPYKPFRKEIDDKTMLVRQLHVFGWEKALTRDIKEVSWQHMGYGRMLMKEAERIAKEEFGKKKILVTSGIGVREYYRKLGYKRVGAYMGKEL

[3] = biological target: T2, Methanocaldococcus infernus Elp3, full length (Methanocaldococcus infernus); assay: condition: 1.6 mM peptide in the syringe, 10–12 µM protein in the cell; ITC; MinElp3 (10–12 µM) in the cell, peptide in the syringe (2.47 mM, H3 1.6 mM); 20 mM HEPES pH 7.5, 150 mM NaCl, 1 mM β-mercaptoethanol; 25 °C; both purified
[4] = biological target: T2, Methanocaldococcus infernus Elp3, full length (Methanocaldococcus infernus); assay: condition: 2.47 mM peptide in the syringe, 10–12 µM protein in the cell; ITC; MinElp3 (10–12 µM) in the cell, peptide in the syringe (2.47 mM, H3 1.6 mM); 20 mM HEPES pH 7.5, 150 mM NaCl, 1 mM β-mercaptoethanol; 25 °C; both purified

- binding [1]: no binding
- binding [2]: no binding
B1: Methanocaldococcus infernus Elp3, full length (enzyme, UniProt D5VRB9 1-534)
chain: MKEKLMRCIIERILKEYKEGKTLDKKRIEQIKSECLRIYRIGIGHPSNSEILKYATEEEKKILIPILRKKPVRTISGVAVVAVMTSPAKCPHGKCIFCPGGLDSVFGDVPQSYTGREPATMRGLMFNFDPYLQTRARIEQLEKVGHPTDKIELIIMGGTFPAREIEYQDWFIKRCLDAMNERESKSLEEAQKINETAKHRCVALCIETRPDYCSEKEINQMLKLGATRVELGVQSIYNEILKLCKRGHSVEDTIKATQLLKDSGLKVSYHLMPGMPGSSIEMDKKMFKEIFTNPDFMPDMVKIYPCLVIEGTELYEMWKRGEFKPYREEEAIEVISYAKSIMPKWVRTSRIQRDIPATVIVDGVKKSNLGELVYKYMEKKGLRCRCIRCREVGHVYYKKGILPDPEHIKLVREDYEASGGTEIFLSFEDVKNDILIAFLRLRDPYKPFRKEIDDKTMLVRQLHVFGWEKALTRDIKEVSWQHMGYGRMLMKEAERIAKEEFGKKKILVTSGIGVREYYRKLGYKRVGAYMGKEL

- binding [3]: no binding
Binder: YSTGGKAPRK (N-terminal acetylation; C-terminal amide) [histone H3 peptide H3(10–18) with an added N-terminal tyrosine]

- binding [4]: no binding
Binder: YMPSDKTIGG (N-terminal acetylation; C-terminal amide) [alpha-tubulin peptide Tubulin(36–44) with an added N-terminal tyrosine]
